Data: article PMC4068158
Results are given in words; binding and its absence hold for the method and conditions named. In cells and extracts the contact can be indirect. Binding can be weak; no strength is given.

Amino acid sequences for entries named in this document (tags omitted). A change or cut given only in a name is not applied to a line headed by its entry.
UniProt Q9UNN5: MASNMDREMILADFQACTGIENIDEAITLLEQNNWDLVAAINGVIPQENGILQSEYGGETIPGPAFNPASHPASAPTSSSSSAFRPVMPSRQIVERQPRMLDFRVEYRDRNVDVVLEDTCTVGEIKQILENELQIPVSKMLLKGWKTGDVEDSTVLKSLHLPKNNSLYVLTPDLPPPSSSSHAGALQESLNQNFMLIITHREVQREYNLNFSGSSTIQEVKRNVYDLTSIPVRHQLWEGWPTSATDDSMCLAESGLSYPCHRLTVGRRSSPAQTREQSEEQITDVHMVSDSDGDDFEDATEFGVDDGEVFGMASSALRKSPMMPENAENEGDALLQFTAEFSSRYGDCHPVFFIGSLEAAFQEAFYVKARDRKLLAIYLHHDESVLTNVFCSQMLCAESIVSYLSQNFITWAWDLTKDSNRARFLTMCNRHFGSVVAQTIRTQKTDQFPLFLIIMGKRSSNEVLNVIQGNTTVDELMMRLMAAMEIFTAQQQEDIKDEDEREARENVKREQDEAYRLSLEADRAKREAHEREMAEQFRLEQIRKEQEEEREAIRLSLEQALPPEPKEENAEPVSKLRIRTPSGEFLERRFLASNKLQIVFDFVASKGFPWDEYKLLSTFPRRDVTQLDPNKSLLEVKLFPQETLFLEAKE
UniProt O95292: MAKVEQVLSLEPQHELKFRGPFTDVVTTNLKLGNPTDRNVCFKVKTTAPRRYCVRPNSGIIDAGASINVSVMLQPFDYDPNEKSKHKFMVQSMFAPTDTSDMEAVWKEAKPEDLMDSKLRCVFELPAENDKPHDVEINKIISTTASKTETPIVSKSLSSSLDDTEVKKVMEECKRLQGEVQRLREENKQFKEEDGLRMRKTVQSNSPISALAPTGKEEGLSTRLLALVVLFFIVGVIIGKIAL

Biological target: Flag-FAF1 lacking the UAS domain (human) (UniProt Q9UNN5)
Assay: co-IP; anti-Flag M2 beads on lysates of U2OS cells expressing the Flag-tagged bait (transfected or tetracycline-induced); buffer A (50 mM HEPES/KOH pH 7.2, 5 mM Mg(OAc)2, 70 mM KOAc, 0.2% Triton X-100, 10% glycerol, 0.2 mM EDTA), 4°C, 2 hr; endogenous prey by immunoblot; cells untreated, treated with MG132 or with siRNA (FAF1, p97, ASNA1, luciferase) as indicated

- binding: binds
Substance: endogenous VAPB (human cells) (from UniProt O95292 1-243)
